Record: PubChem BioAssay AID1259308 (NCATS, 2017)
Screen: 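Genes whose loss raises luciferase production in HEK293 cells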 (primary screen). Cell system: human HEK293 embryonic kidney cells stably expressing firefly luciferase (HEK-CMV-Luc2-Hygro). Reagents: single siRNA against human genes, 0.8 pmol siRNA per well. Time to read-out: 72 h. Read-out: 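Reporter luminescence and viable-cell signal on separate replicate plates, given as percent of non-targeting control and median/MAD z-scores, plus per-cell luciferase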. Scale: total luciferase, z-score and total luciferase, % of control: higher = more reporter protein produced; luciferase per cell, z-score: higher = more reporter output per viable cell. Hit rule: 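An siRNA counts as active if its total luciferase robust z-score exceeds 3; genes with two or more such siRNAs out of three were retested with fresh siRNAs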. Calls: active = raised luciferase; inactive = no rise.
This is one part, drawn at random, of about 59,000 reagents. In the full data, about 1,510 (2.6%) were called active. 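Calls use total luciferase alone and ignore viability, so some active siRNAs may act by altering cell number.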 Reagents against one gene are numbered here. Not all columns of the deposit are shown. No sequences are given here.

gene | reagent | total luciferase, z-score | total luciferase, % of control | luciferase per cell, z-score | activity call
ACIN1 (apoptotic chromatin condensation inducer 1) | 1 | 0.357 | 89 | -0.304 | inactive
ACIN1 (apoptotic chromatin condensation inducer 1) | 2 | 0.24 | 86.7 | 0.165 | inactive
ACIN1 (apoptotic chromatin condensation inducer 1) | 3 | -0.479 | 72.4 | -1.1 | inactive
HAO1 (hydroxyacid oxidase 1) | 1 | -0.231 | 77.3 | -0.614 | inactive
HAO1 (hydroxyacid oxidase 1) | 2 | -0.252 | 76.9 | 0.382 | inactive
HAO1 (hydroxyacid oxidase 1) | 3 | -0.585 | 70.3 | -0.767 | inactive
MRC2 (mannose receptor C-type 2) | 1 | 0.203 | 85.9 | 0.911 | inactive
MRC2 (mannose receptor C-type 2) | 2 | -0.165 | 78.6 | -0.00547 | inactive
MRC2 (mannose receptor C-type 2) | 3 | -2.41 | 33.9 | -0.906 | inactive
CDNF (cerebral dopamine neurotrophic factor) | 1 | 0.613 | 94.1 | 0.512 | inactive
CDNF (cerebral dopamine neurotrophic factor) | 2 | -0.59 | 70.1 | 0.0534 | inactive
CDNF (cerebral dopamine neurotrophic factor) | 3 | 0.0659 | 83.2 | -0.465 | inactive
TLN1 (talin 1) | 1 | 0.47 | 91.2 | 0.114 | inactive
TLN1 (talin 1) | 2 | 3.15 | 145 | 1.8 | active
TLN1 (talin 1) | 3 | 2.57 | 133 | 1.61 | inactive
CCDC198 (coiled-coil domain containing 198) | 1 | -1.36 | 54.9 | -1.38 | inactive
CCDC198 (coiled-coil domain containing 198) | 2 | 1.02 | 102 | 1.26 | inactive
CCDC198 (coiled-coil domain containing 198) | 3 | 0.132 | 84.5 | 0.525 | inactive
ANKRD31 (ankyrin repeat domain 31) | 1 | -2.32 | 35.7 | -2.58 | inactive
ANKRD31 (ankyrin repeat domain 31) | 2 | -0.427 | 73.4 | -0.306 | inactive
ANKRD31 (ankyrin repeat domain 31) | 3 | -0.464 | 72.7 | -0.161 | inactive
RPA3 (replication protein A3) | 1 | 0.577 | 93.4 | 0.605 | inactive
RPA3 (replication protein A3) | 2 | -1.94 | 43.4 | -2.37 | inactive
RPA3 (replication protein A3) | 3 | 0.645 | 94.7 | -0.17 | inactive
